From article PMC7197785 (PLoS Pathogens, 2020)

Amino acid sequences for entries named in this document (tags omitted). A change or cut given only in a name is not applied to a line headed by its entry.
UniProt C4M344: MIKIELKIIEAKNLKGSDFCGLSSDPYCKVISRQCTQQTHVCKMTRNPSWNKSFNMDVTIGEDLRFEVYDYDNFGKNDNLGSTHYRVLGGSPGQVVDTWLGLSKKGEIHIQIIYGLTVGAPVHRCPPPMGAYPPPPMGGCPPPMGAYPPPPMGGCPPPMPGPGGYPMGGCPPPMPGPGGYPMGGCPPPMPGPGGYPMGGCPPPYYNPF

T1: GSTEhRab21 (E. histolytica) (UniProt Q9BLF0)
T1 sequence: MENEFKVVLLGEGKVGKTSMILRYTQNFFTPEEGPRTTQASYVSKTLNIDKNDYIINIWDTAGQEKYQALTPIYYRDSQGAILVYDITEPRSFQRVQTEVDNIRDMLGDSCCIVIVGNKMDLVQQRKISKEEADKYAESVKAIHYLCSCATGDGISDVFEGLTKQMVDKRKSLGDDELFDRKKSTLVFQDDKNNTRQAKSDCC

B1: GSTEhRab21 (enzyme)
chain: T1 sequence
notes: also called GppNHp-GSTEhRab21; GDP-GSTEhRab21; source: recombinant, purified

What was measured:
[1] = target: T1, GSTEhRab21 (E. histolytica); assay: pull-down; both purified
[2] = target: MBPEhC2BHis (E. histolytica) (UniProt C4M344); assay: condition: only EhRab21 loaded with GDP (76 μM into 10 μM); ITC; both purified

Molecule	binding [1]	binding [2]
MBPEhC2BHis (from UniProt C4M344)	binds	–
EhC2A (C2 domain) (E. histolytica) (domain or fragment)	no binding	–
B1	–	no binding

No constants are given. Whether binding was seen depends on the method and setting. For part of these data: Binding calls can cover weak binding; strength is not graded here. Tags and fused reporters may be left off the sequences shown.
